Measured values published in PMC5988678.
No constants are given. Whether binding was seen depends on the method and setting. Binding seen in cells or lysates may run through a third protein. Binding calls can cover weak binding; strength is not graded here. Where a sequence is shown, tags or fusion partners need not be part of it.

Experiments:
[1] = target: T1, ER-Short β11 (β11 tag fused to the minimal Sac1 ER targeting sequence, 29 aa spacer); experiment: split reporter; split-GFP complementation (GFP1-10 with GFP β-strand 11) in co-transfected HeLa cells (SPLICS pairs also in HEK293), confocal microscopy 48-72 h after transfection
T1 sequence: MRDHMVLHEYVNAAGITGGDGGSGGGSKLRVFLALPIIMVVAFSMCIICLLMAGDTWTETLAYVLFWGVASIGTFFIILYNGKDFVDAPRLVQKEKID

[2] = target: T1, ER-Short β11 (β11 tag fused to the minimal Sac1 ER targeting sequence, 29 aa spacer); experiment: split reporter; split-GFP complementation after mosaic expression in D. rerio embryos, 24 hpf, fixed, confocal microscopy with mitochondrial (pTagRFP-mito) or ER (pDsRed2-ER) marker

binding [1]: binds | binding [2]: binds
Substance: untargeted (cytosolic) non-fluorescent GFP1-10 (domain or fragment)
